Consider six sequences from US20130123478.

Data set [1] has as its target T1, Protein tyrosine kinase 7 (PTK7) (Homo sapiens) (UniProt Q13308).
T1 sequence (looked up, limits assumed): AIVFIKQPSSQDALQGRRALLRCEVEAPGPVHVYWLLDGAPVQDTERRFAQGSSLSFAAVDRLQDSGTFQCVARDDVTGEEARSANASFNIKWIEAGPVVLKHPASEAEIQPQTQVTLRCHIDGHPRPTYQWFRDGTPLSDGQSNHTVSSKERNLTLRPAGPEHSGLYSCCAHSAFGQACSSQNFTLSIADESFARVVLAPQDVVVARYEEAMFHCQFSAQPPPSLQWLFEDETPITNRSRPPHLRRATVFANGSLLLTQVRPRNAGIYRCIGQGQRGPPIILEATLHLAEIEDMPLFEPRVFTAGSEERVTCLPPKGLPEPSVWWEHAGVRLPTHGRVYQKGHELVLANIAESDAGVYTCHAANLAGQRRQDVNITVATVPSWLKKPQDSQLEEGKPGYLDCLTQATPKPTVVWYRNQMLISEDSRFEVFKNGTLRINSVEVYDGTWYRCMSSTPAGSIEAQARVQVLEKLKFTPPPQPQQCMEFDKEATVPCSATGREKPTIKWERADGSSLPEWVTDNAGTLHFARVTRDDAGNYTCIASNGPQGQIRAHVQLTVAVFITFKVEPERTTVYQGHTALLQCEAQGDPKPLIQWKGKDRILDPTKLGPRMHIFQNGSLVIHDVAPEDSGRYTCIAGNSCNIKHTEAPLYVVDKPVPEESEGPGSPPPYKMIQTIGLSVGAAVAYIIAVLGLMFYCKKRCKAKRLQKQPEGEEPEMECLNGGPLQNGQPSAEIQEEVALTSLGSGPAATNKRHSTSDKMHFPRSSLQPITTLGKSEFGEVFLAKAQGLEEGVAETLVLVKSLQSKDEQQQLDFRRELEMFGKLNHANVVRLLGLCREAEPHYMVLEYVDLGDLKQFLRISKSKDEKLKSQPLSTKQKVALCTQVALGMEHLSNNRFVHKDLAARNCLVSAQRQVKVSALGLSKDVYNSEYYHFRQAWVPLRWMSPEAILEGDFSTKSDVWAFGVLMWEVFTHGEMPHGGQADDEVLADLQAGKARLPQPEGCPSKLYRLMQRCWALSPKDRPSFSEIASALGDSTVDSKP
As to the kind of experiment: flow cytometry. Particulars: 5-fluorodeoxyuridine at U positions (all 9 T); 3' inverted dT; better than scrambled control, less than scgc8; inhibited Jurkat growth as efficiently as free drug at 500 nM; protein on the cell surface; label: 5' fluorescein; single-stranded DNA; variant of scgc8.

In data set [2] the target is Transferrin receptor (CD71, TfR) (Homo sapiens) (UniProt P02786). In words: SELEX. Particulars: 2'-F pyrimidines (2'F modified RNA pool); functional clone from round 5; rounds 1-4 on recombinant protein, round 5 internalization on HeLa; purified recombinant protein.
The target is the same in data set [3]. In words: flow cytometry. The conditions noted are these: FdC prodrug toxic to HeLa at 50 nM, protein on the cell surface, protein details: endogenous on HeLa or Jurkat cells. A general note: In flow cytometry, cells or beads pass a laser one at a time.

For part of these data: Results from cells or extracts need not show a direct contact. For part of these data: A weaker result is weaker than the reference pair of the same experiment. For part of these data: Protein sequences can lack the tags named with them. For part of these data: For at least one entry, the source does not settle the construct or the ends of the probe.

For “AUCUAACUGCUGCGCCGCCGGGAAAAUACUGUACGGUUAGA [scgc8-9]”, the binding result in data set [1] is “binds more weakly”.
As to “GGGAGGUGAAUGGUUCUACGAUCAUUACGGCUACCCCGUGUAACGUCUAGCCAAAGUAGUACCAAAAGUCAGUUACAUGCGAGAUGACCACGUAAUUGAAUUAAAUGCCCGCCAUGACCAG [clone 11 (c11)]”, in data set [2], the selection result was “selected”.
On the same count and under the same terms, the value for “GGGAGGUGAAUGGUUCUACGAUUAGGUUAGCGGCAGAUCACUACAAAGCCCCUAGAGCACAUGCUCCACCGCUUUACAUGCCGAGAUGACCACCGUAAUAGAAUUAAAUGCCCGCCAUGACCAG [clone 4 (c4)]” was “selected”; that for “GGGAGGUGAAUGGUUCUACGAUUCAAACAUCUCACAGAUCAAUCCAAGGGACCUCGUUAAAGGACGACUCCCUUACAUGCGAGAUGACCACGUAAGGAAUUAAAUGCCCGCCAUGACCAG [clone 2 (c2)]” was “selected”.
Consider “GGGGGATCAATCCGGCTACCCCGTGTAACGTCTAGCCACACCCCGAATTAAATGCCCGCCATGACCAG / CTCCTCATGCCGCGCATCTCATTA [c2m9.1.drug (min9.1 extended) hybridized to 5FdC.oligo.1]”, for which the binding result in data set [3] (2'-F pyrimidines in aptamer strand, 5-fluorodeoxycytidine at all C of DNA oligo, function after hybridization confirmed by FACS with FITC version of oligo, DPBS Ca2+ Mg2+ assembly) is on record as “binds”.
For the sequence “GGGGGAUCAAUCCAAGGGACCCGGAAACGCUCCCUUACACCCC [c2m8 (min8)]”, the binding result in data set [3] (2'-F pyrimidines (2'F modified RNA pool), function after hybridization confirmed by FACS with FITC oligo, variant of clone 2 (c2)) is reported as “binds”.
